PubChem BioAssay AID493246 – Drosophila RNAi Screening Center | 2011

Assay: 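Genome-wide search for dsRNAs that reduce cell number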 (primary screen)
Cells: Drosophila Kc and S2R+ cells
Reagent: long dsRNA against Drosophila genes
Read-out: 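Raw, unnormalised count of remaining cells in each well; per-plate z-scores of cell number underlie the calls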
Direction: Kc cell number and S2R+ cell number: higher = more cells remaining
Call rule: 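Counted as a hit if cell number falls by a z-score of at least 3 within its plate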
In all, the deposit lists about 21,000 reagents; this is a random part of those with a known target gene and a result. Over the whole deposit, 429 (2%) are marked active. 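Values are raw and not normalised between plates; calls rest on per-plate z-scores that were not deposited.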 Entries without a mark were called inactive. The numbers tell different reagents against one gene apart. A plus sign joins genes that one reagent is predicted to hit. The record does not give: the amount of reagent, the time to read-out.

Target gene	reagent no.	Kc cell number, rep 1	Kc cell number, rep 2	S2R+ cell number, rep 1	S2R+ cell number, rep 2
CG31650	1	1.33e6	1.34e6	5.34e5	5.88e5
CG12290	1	4.99e5		7.75e5	
Prp31	1	1.63e6	1.69e6	1.14e6	1.19e6
CG17528	1	1.44e6	1.38e6	9.68e5	1.20e6
CG10472	1	1.37e6	1.43e6	1.28e6	1.16e6
Tdc1	1	1.55e6	1.63e6	1.07e6	1.14e6
CG14079	1	1.42e6	1.51e6	1.23e6	1.35e6
fj	1	1.59e6	1.68e6	1.22e6	1.37e6
CG14260	1	1.46e6	1.47e6	1.07e6	1.17e6
Meltrin	1	1.54e6	1.51e6	1.29e6	1.29e6
Acadvl	1	1.37e6	1.38e6	1.16e6	1.16e6
CG31068	1	1.06e6	1.22e6	1.04e6	1.04e6
Dh31-R	1	1.49e6	1.63e6	1.21e6	1.34e6
Dh31-R	2	1.60e6	1.66e6	1.35e6	1.49e6
Gli	1	1.60e6	1.64e6	1.34e6	1.46e6
shakB	1	1.83e6	1.81e6	1.14e6	1.32e6
shakB	2	1.51e6	1.55e6	1.08e6	1.18e6
CG8774	1	1.55e6	1.61e6	1.26e6	1.29e6
CG32264	1	1.29e6 (active)	1.20e6	6.99e5	8.57e5
CG32264	2	1.50e6	1.38e6	1.04e6	1.34e6
CG32264	3	1.36e6	1.41e6	1.22e6	1.18e6
CG32264	4	1.49e6	1.66e6	1.09e6	1.21e6
CG32264	5	1.58e6 (active)	1.55e6	5.57e5	6.84e5
su(r)	1	5.65e5		9.14e5	
CG11741	1	1.44e6	1.55e6	1.23e6	1.31e6
pnr	1	1.55e6	1.60e6	1.11e6	1.21e6
CG9356	1	1.46e6	1.48e6	1.18e6	1.25e6

The list goes on, starting with the last 2 of the part before.
Target gene	reagent no.	Kc cell number, rep 1	Kc cell number, rep 2	S2R+ cell number, rep 1	S2R+ cell number, rep 2
pnr	1	1.55e6	1.60e6	1.11e6	1.21e6
CG9356	1	1.46e6	1.48e6	1.18e6	1.25e6
ab	1	1.35e6	1.51e6	8.39e5	9.64e5
CG3014	1	1.43e6	1.55e6	1.23e6	1.30e6
Zyx	1	1.12e6	1.37e6	1.06e6	1.02e6
JMJD4	1	1.31e6	1.36e6	1.32e6	1.28e6
RpS28a	1	1.53e6	1.55e6	1.12e6	1.20e6
PIG-H	1	1.59e6	1.78e6	1.37e6	1.47e6
Fgop2	1	1.17e6	1.23e6	5.54e5	6.95e5
Sr-CIV	1	1.54e6	1.46e6	1.13e6	1.26e6
CG31204	1	1.60e6	1.61e6	1.02e6	1.16e6
DNaseII	1	1.50e6	1.53e6	1.22e6	1.27e6
CG7943	1	5.20e5		8.31e5	
CG17744	1	1.31e6	1.32e6	1.22e6	1.23e6
CG6978	1	1.67e6	1.75e6	1.16e6	1.28e6
CG9550	1	1.63e6	1.54e6	1.23e6	1.42e6
CG30412	1	1.35e6	1.77e6	1.05e6	1.16e6
l(1)G0020	1	1.84e6	1.80e6	1.13e6	1.29e6
Lsd-1	1	1.42e6	1.52e6	1.19e6	1.29e6
CG12691	1	1.60e6	1.58e6	1.01e6	1.18e6
b	1	1.83e6	1.89e6	1.43e6	1.56e6
GluRIB + CG42509 (retired record)	1	1.62e6	1.75e6	1.17e6	1.41e6
GluRIB + CG42509 (retired record)	2	1.60e6	1.63e6	1.23e6	1.31e6
CG14695	1	1.75e6	1.77e6	1.27e6	1.37e6
Sse	1	1.36e6	1.46e6	8.19e5	7.06e5
CG14110	1	1.58e6	1.66e6	1.41e6	1.60e6
hbn	1	8.78e5 (active)	9.09e5	5.70e5	2.79e5
hbn	2	1.65e6	1.65e6	1.06e6	1.20e6
hbn	3	1.66e6	1.66e6	1.27e6	3.47e5
CG18223	1	1.61e6	1.66e6	1.24e6	1.43e6
CG17030	1	1.49e6	1.44e6	1.14e6	1.21e6
Fas1	1	1.47e6	1.45e6	1.04e6	1.14e6
CG32241	1	1.46e6	1.34e6	1.05e6	1.16e6
Shmt	1	1.53e6	1.52e6	1.05e6	1.17e6
